{"source": "patent US20050239152A1", "about": "“Continuous-flow enzyme assay” (Kiadis B.V., priority 2002, published 2005)", "target": "Cathepsin B (E.C. 3.4.22.1, from bovine spleen) (Bos taurus, UniProt P07688)", "conditions": "FI-CF system, FIG. 7", "note": "At least one compound was matched to its structure with a doubt left. *1 amine or outer side, *2 acyl side, *3 side chain or, on linkers, in order; H or OH if unused. Where a SMILES comes first, the peptide text is derived from it. CO = O=C([*:1])[*:2]", "data": [{"smiles": "CC(C)[C@H](NC(=O)[C@H](CCCNC(=N)N)NC(=O)N[C@@H](Cc1ccccc1)C(=O)O)C(=O)N[C@H](C=O)CCCNC(=N)N", "note": "[antipain, N-(Nα-carbonyl-Arg-Val-Arg-al)-Phe] ({Phe-CO}-Arg-Val-Arg-aldehyde)", "values": [{"measurement": "inhibition potency by area of negative peaks in product mass trace (m/z 456.0)", "setting": "1 μL injections", "value": "stronger inhibitor than E64"}, {"measurement": "injected concentration giving more or less the same area of negative peaks", "setting": "antipain compared with E64", "value": 0.10, "unit": "µM"}]}]}
